Reference: US8772266B2, “Fungicide pyrazole carboxamides derivates” (Bayer Cropscience AG, priority 2009, dated 2014)
Some entries share one result that the patent states for a list of compounds.

Key:
[1] = tested on: Alternaria solani; test: In vivo preventive test on Alternaria solani (tomato); settings: 500 ppm of active ingredient, evaluated 7 days after inoculation
[2] = tested on: Puccinia recondita; test: In vivo preventive test on Puccinia recondita (wheat); settings: 500 ppm of active ingredient, evaluated 7-9 days after inoculation
[3] = tested on: Venturia inaequalis; test: In vivo preventive test on Venturia inaequalis (apple scab); settings: 10 ppm of active ingredient, evaluated 10 days after inoculation
[4] = tested on: Pyrenophora teres; test: In vivo preventive test on Pyrenophora teres (barley); settings: 500 ppm of active ingredient, evaluated 7-9 days after inoculation
[5] = tested on: Aspergillus parasiticus; format: cell-based; settings: 50 μM of active ingredient; 7 days; fluorescence
[6] = tested on: Botrytis cinerea; test: In vivo preventive test on Botrytis cinerea (beans); settings: 100 ppm of active ingredient, evaluated 2 days after inoculation
[7] = tested on: Leptosphaeria nodorum; test: In vivo preventive test on Leptosphaeria nodorum (wheat); settings: 500 ppm of active ingredient, evaluated 7-9 days after inoculation
[8] = tested on: Blumeria graminis f.sp. tritici; test: In vivo curative test on Blumeria graminis (wheat); settings: 250 ppm of active ingredient, evaluated 7 days after inoculation
[9] = tested on: Puccinia triticina; test: In vivo curative test on Puccinia triticina (wheat); settings: 500 ppm of active ingredient, evaluated 8 days after inoculation
[10] = tested on: Sphaerotheca fuliginea; test: In vivo preventive test on Sphaerotheca fuliginea (cucumber), Example L; settings: 500 ppm of active ingredient, evaluated 7 days after inoculation
[11] = tested on: Fusarium proliferatum; test: Inhibition of Fumonisin FB1 produced by Fusarium proliferatum; format: cell-based; settings: 50 μM of active ingredient; 5 days; HPLC-MS/MS

Cn1nc(C(F)F)c(C(=O)N(Cc2cc(Cl)ccc2C(F)(F)F)C2CC2)c1F [Example 1]
disease control [1]: at least 70%
disease control [2]: at least 70%
disease control [3]: at least 70%
disease control [4]: at least 70%
inhibition of aflatoxines production [5]: > 80%
disease control [6]: at least 90%
disease control [7]: at least 70%
disease control [8]: at least 80%
disease control [9]: at least 95%
disease control [10]: at least 70%

Cn1nc(C(F)F)c(C(=O)N(Cc2c(F)cccc2I)C2CC2)c1F [Example 8]
inhibition of Fumonisin FB1 production [11]: > 80%
disease control [2]: at least 70%
disease control [3]: at least 70%
inhibition of aflatoxines production [5]: > 80%
disease control [7]: at least 70%
disease control [8]: at least 80%
disease control [9]: at least 95%
disease control [10]: at least 70%

Cn1nc(C(F)F)c(C(=O)N(Cc2ccccc2I)C2CC2)c1F [Example 9]
inhibition of Fumonisin FB1 production [11]: > 80%
disease control [2]: at least 70%
disease control [3]: at least 70%
disease control [4]: at least 70%
inhibition of aflatoxines production [5]: > 80%
disease control [6]: at least 90%
disease control [7]: at least 70%
disease control [8]: at least 80%
disease control [9]: at least 95%
disease control [10]: at least 70%

CC[Si](CC)(CC)c1ccccc1CN(C(=O)c1c(C(F)F)nn(C)c1F)C1CC1 [Example 14]
disease control [1]: at least 70%
inhibition of Fumonisin FB1 production [11]: > 80%
disease control [2]: at least 70%
disease control [3]: at least 70%
disease control [4]: at least 70%
inhibition of aflatoxines production [5]: > 80%
disease control [6]: at least 90%
disease control [7]: at least 70%
disease control [10]: at least 70%

Cc1cc(Br)c(CN(C(=O)c2c(C(F)F)nn(C)c2F)C2CC2)cc1Br [Example 17]
disease control [1]: at least 70%
inhibition of Fumonisin FB1 production [11]: > 80%
disease control [2]: at least 70%
disease control [3]: at least 70%
disease control [4]: at least 70%
inhibition of aflatoxines production [5]: > 80%
disease control [6]: at least 90%
disease control [7]: at least 70%

Cn1nc(C(F)F)c(C(=O)N(Cc2c(Cl)cccc2I)C2CC2)c1F [Example 19]
disease control [1]: at least 70%
inhibition of Fumonisin FB1 production [11]: > 80%
disease control [2]: at least 70%
disease control [3]: at least 70%
disease control [4]: at least 70%
inhibition of aflatoxines production [5]: > 80%
disease control [6]: at least 90%
disease control [7]: at least 70%
disease control [10]: at least 70%

Cn1nc(C(F)F)c(C(=O)N(Cc2ccc(Cl)cc2I)C2CC2)c1F [Example 20]
inhibition of Fumonisin FB1 production [11]: > 80%
disease control [2]: at least 70%
disease control [3]: at least 70%
disease control [4]: at least 70%
inhibition of aflatoxines production [5]: > 80%
disease control [6]: at least 90%
disease control [7]: at least 70%
disease control [10]: at least 70%

Cn1nc(C(F)F)c(C(=O)N(Cc2cc(Br)ccc2I)C2CC2)c1F [Example 21]
disease control [1]: at least 70%
inhibition of Fumonisin FB1 production [11]: > 80%
disease control [2]: at least 70%
disease control [3]: at least 70%
disease control [4]: at least 70%
inhibition of aflatoxines production [5]: > 80%
disease control [6]: at least 90%
disease control [7]: at least 70%
disease control [9]: at least 95%
disease control [10]: at least 70%

Cn1nc(C(F)F)c(C(=O)N(Cc2cc(Cl)ccc2I)C2CC2)c1F [Example 23]
inhibition of Fumonisin FB1 production [11]: > 80%

CCCCCc1cccc(Cl)c1CN(C(=O)c1c(C(F)F)nn(C)c1F)C1CC1 [Example 27]
disease control [1]: at least 70%
inhibition of Fumonisin FB1 production [11]: > 80%
disease control [2]: at least 70%
disease control [4]: at least 70%
inhibition of aflatoxines production [5]: > 80%
disease control [6]: at least 90%
disease control [7]: at least 70%
disease control [10]: at least 70%

CCCCCc1ccccc1CN(C(=O)c1c(C(F)F)nn(C)c1F)C1CC1 [Example 28]
disease control [1]: at least 70%
inhibition of Fumonisin FB1 production [11]: > 80%
disease control [2]: at least 70%
disease control [3]: at least 70%
disease control [4]: at least 70%
inhibition of aflatoxines production [5]: > 80%
disease control [6]: at least 90%
disease control [7]: at least 70%
disease control [9]: at least 95%
disease control [10]: at least 70%

CC(C)Cc1cc(Cl)ccc1CN(C(=O)c1c(C(F)F)nn(C)c1F)C1CC1 [Example 31]
disease control [1]: at least 70%
inhibition of Fumonisin FB1 production [11]: > 80%
disease control [2]: at least 70%
disease control [3]: at least 70%
disease control [4]: at least 70%
inhibition of aflatoxines production [5]: > 80%
disease control [6]: at least 90%
disease control [7]: at least 70%
disease control [10]: at least 70%

CC(C)Cc1cccc(Cl)c1CN(C(=O)c1c(C(F)F)nn(C)c1F)C1CC1 [Example 32]
inhibition of Fumonisin FB1 production [11]: > 80%

CC(C)c1ccccc1CN(C(=O)c1c(C(F)F)nn(C)c1Cl)C1CC1 [Example 34]
disease control [1]: at least 70%
disease control [2]: at least 70%
disease control [3]: at least 70%
disease control [4]: at least 70%
inhibition of aflatoxines production [5]: > 80%
disease control [6]: at least 90%
disease control [7]: at least 70%
disease control [10]: at least 70%

Cn1nc(C(F)F)c(C(=O)N(Cc2ccccc2I)C2CC2)c1Cl [Example 35]
disease control [1]: at least 70%
inhibition of Fumonisin FB1 production [11]: > 80%
disease control [2]: at least 70%
disease control [4]: at least 70%
inhibition of aflatoxines production [5]: > 80%

Cn1nc(C(F)F)c(C(=O)N(Cc2cc(Cl)ccc2C(F)(F)F)C2CC2)c1Cl [Example 36]
disease control [1]: at least 70%
inhibition of Fumonisin FB1 production [11]: > 80%
disease control [2]: at least 70%
disease control [4]: at least 70%
inhibition of aflatoxines production [5]: > 80%
disease control [9]: at least 95%
disease control [10]: at least 70%

CC(C)Oc1ccc2c(c1)CCCC2N(C(=O)c1c(C(F)F)nn(C)c1F)C1CC1 (centres unmarked) [Example 42]
disease control [1]: at least 70%
inhibition of Fumonisin FB1 production [11]: > 80%
disease control [2]: at least 70%
disease control [3]: at least 70%
disease control [4]: at least 70%
inhibition of aflatoxines production [5]: > 80%
disease control [6]: at least 90%
disease control [7]: at least 70%
disease control [9]: at least 95%
disease control [10]: at least 70%

Cn1nc(C(F)F)c(C(=O)N(Cc2cc(I)ccc2C(F)(F)F)C2CC2)c1F [Example 43]
disease control [1]: at least 70%
disease control [2]: at least 70%
disease control [3]: at least 70%
disease control [4]: at least 70%
inhibition of aflatoxines production [5]: > 80%
disease control [7]: at least 70%
disease control [9]: at least 95%
disease control [10]: at least 70%

CCc1cc(C)c(C)cc1CN(C(=O)c1c(C(F)F)nn(C)c1F)C1CC1 [Example 53]
inhibition of Fumonisin FB1 production [11]: > 80%
disease control [3]: at least 70%
inhibition of aflatoxines production [5]: > 80%
disease control [6]: at least 90%
disease control [8]: at least 80%
disease control [9]: at least 95%

CC(c1ccccc1C(F)(F)F)N(C(=O)c1c(C(F)F)nn(C)c1Cl)C1CC1 (centres unmarked) [Example 55]
disease control [1]: at least 70%
disease control [2]: at least 70%
disease control [4]: at least 70%
inhibition of aflatoxines production [5]: > 80%
disease control [7]: at least 70%
disease control [10]: at least 70%

Cn1nc(C(F)F)c(C(=O)N(Cc2ccccc2C(F)(F)F)C2CC2)c1Cl [Example 56]
disease control [1]: at least 70%
inhibition of Fumonisin FB1 production [11]: > 80%
disease control [2]: at least 70%
disease control [4]: at least 70%
inhibition of aflatoxines production [5]: > 80%
disease control [10]: at least 70%

Cn1nc(C(F)F)c(C(=O)N(Cc2ncc(C(F)(F)F)cc2Cl)C2CC2)c1Cl [Example 57]
disease control [1]: at least 70%
disease control [2]: at least 70%
disease control [4]: at least 70%
inhibition of aflatoxines production [5]: > 80%
disease control [7]: at least 70%

Cn1nc(C(F)F)c(C(=O)N(Cc2ccc(Cl)cc2Cl)C2CC2)c1Cl [Example 59]
disease control [1]: at least 70%
disease control [2]: at least 70%
disease control [4]: at least 70%
inhibition of aflatoxines production [5]: > 80%

CC(c1ccc(Oc2ccccc2)cc1)N(C(=O)c1c(C(F)F)nn(C)c1Cl)C1CC1 (centres unmarked) [Example 60]
disease control [1]: at least 70%
inhibition of Fumonisin FB1 production [11]: > 80%
disease control [2]: at least 70%
disease control [4]: at least 70%
inhibition of aflatoxines production [5]: > 80%
disease control [7]: at least 70%

Cn1nc(C(F)F)c(C(=O)N(Cc2cccc(-c3ccccc3)c2)C2CC2)c1Cl [Example 67]
inhibition of Fumonisin FB1 production [11]: > 80%
